Experimental data from the supplement of paper PMC12823440, “Inhibitors supercharge kinase turnover through native proteolytic circuits” (Nature, 2025).
The other results are listed elsewhere or left out. Hit calls seldom repeat between salt and free forms of one compound.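 In K562 cells expressing nanoluciferase-fused kinases, luminescence was recorded at 4 h intervals between 2 and 18 h, normalized as percent of control with DMSO at 100% and a positive control at 0%. A significant (2 sigma) signal drop marks a time point as decreased. The authors' rule for a hit is not shown and takes in more than the number of time points.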

The chains behind the UniProt entries cited, without tags or fusion partners. Where a name states a change or a piece, a line headed by the entry shows the natural chain unless it says otherwise.
UniProt P42680: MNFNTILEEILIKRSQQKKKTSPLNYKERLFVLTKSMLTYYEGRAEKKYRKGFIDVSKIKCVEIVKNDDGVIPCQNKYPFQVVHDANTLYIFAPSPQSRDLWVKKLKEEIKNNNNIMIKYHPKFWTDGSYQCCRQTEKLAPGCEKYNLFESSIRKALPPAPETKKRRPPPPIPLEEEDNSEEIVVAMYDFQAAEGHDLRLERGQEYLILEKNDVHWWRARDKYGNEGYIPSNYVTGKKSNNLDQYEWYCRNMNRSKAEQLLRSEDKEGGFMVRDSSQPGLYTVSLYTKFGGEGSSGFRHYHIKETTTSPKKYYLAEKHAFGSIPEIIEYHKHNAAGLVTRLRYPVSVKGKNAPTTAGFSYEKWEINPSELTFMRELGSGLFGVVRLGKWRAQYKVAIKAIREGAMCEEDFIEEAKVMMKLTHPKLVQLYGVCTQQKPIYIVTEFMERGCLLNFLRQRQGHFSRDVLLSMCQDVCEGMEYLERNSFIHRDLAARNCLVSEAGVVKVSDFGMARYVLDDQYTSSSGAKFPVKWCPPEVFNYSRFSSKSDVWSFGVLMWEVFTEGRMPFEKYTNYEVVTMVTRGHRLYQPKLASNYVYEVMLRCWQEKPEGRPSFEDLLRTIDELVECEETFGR
UniProt P29597: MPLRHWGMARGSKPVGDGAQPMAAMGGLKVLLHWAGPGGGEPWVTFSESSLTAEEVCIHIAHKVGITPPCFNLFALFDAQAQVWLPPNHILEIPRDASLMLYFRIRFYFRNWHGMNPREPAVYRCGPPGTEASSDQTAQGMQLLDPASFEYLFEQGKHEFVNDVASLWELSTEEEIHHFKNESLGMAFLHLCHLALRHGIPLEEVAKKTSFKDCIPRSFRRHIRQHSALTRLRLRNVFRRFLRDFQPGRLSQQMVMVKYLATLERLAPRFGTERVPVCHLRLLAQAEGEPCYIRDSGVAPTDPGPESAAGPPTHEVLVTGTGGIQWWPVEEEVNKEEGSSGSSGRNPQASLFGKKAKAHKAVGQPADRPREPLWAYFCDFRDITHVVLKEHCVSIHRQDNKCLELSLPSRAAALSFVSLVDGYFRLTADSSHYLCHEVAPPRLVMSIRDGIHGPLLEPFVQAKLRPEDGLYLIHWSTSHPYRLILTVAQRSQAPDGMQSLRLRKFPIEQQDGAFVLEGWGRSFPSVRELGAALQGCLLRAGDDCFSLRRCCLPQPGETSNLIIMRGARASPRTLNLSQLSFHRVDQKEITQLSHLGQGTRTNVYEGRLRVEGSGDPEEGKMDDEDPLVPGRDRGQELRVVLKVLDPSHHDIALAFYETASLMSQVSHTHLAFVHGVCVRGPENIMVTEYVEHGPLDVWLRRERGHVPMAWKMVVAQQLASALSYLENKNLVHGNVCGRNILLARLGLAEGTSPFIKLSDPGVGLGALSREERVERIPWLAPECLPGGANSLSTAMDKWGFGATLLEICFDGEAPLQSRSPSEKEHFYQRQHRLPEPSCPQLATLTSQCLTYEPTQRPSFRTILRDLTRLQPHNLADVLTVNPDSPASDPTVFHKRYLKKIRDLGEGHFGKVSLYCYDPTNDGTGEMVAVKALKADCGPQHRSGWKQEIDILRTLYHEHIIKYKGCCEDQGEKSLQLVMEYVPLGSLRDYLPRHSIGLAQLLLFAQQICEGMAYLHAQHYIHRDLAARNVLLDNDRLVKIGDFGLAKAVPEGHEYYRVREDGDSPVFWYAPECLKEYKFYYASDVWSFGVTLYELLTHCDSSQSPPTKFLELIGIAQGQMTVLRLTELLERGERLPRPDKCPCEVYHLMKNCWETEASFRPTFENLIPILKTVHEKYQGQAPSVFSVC
UniProt Q96GD4, whole entry: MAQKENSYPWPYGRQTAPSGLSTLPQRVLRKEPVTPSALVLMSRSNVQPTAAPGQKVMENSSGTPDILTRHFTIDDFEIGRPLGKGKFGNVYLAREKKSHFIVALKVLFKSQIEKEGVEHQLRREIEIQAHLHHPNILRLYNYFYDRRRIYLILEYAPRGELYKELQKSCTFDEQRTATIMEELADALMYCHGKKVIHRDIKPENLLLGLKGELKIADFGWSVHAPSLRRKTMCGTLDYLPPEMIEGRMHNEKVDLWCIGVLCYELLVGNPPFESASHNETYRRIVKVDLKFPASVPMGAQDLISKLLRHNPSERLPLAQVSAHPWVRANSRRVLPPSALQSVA
UniProt P48730: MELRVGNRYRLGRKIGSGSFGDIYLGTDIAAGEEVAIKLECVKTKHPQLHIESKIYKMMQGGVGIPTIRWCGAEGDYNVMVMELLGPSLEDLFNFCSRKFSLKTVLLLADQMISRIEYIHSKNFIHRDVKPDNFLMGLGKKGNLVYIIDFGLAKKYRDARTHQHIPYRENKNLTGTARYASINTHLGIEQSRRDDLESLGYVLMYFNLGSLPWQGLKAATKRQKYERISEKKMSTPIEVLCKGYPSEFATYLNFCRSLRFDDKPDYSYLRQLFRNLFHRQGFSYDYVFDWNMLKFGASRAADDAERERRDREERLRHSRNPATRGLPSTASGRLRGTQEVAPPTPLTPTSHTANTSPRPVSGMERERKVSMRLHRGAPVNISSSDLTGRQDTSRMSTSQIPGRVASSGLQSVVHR
UniProt Q9Y616: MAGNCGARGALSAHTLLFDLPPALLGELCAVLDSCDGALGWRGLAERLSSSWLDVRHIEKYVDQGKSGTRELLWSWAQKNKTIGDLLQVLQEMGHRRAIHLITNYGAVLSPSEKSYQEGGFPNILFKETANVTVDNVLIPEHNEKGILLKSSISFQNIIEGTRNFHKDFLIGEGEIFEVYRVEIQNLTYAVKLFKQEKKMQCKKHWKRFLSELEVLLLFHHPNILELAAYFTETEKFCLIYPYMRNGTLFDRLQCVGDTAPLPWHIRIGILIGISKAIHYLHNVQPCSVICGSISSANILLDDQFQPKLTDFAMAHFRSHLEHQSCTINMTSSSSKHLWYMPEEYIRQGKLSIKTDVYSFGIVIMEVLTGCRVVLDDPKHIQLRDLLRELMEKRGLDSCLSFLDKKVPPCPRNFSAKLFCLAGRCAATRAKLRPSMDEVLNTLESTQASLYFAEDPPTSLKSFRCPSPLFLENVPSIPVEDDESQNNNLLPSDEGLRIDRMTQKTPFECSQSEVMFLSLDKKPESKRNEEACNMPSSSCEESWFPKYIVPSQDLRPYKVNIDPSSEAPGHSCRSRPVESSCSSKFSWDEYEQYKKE
UniProt Q00526: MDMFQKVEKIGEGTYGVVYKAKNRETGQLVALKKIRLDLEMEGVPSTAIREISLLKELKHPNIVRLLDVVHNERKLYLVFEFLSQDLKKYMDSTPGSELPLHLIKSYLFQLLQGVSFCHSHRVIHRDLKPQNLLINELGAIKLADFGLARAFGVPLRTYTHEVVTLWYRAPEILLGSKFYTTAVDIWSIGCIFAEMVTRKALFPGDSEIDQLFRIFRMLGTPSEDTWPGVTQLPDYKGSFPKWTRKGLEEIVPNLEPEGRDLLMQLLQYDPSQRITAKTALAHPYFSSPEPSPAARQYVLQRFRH
UniProt P41240: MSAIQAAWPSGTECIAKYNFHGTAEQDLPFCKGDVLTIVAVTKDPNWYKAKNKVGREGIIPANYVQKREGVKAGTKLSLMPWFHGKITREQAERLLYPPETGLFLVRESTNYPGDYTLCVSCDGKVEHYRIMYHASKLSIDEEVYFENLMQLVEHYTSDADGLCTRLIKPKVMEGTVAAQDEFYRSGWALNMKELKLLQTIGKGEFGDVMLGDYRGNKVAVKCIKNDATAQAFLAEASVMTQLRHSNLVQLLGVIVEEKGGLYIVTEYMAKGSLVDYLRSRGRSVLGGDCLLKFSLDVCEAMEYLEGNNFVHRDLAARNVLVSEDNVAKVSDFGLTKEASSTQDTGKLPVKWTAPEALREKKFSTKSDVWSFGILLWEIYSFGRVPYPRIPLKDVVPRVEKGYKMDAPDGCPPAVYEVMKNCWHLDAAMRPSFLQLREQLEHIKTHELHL
UniProt P11362, whole entry, looked up: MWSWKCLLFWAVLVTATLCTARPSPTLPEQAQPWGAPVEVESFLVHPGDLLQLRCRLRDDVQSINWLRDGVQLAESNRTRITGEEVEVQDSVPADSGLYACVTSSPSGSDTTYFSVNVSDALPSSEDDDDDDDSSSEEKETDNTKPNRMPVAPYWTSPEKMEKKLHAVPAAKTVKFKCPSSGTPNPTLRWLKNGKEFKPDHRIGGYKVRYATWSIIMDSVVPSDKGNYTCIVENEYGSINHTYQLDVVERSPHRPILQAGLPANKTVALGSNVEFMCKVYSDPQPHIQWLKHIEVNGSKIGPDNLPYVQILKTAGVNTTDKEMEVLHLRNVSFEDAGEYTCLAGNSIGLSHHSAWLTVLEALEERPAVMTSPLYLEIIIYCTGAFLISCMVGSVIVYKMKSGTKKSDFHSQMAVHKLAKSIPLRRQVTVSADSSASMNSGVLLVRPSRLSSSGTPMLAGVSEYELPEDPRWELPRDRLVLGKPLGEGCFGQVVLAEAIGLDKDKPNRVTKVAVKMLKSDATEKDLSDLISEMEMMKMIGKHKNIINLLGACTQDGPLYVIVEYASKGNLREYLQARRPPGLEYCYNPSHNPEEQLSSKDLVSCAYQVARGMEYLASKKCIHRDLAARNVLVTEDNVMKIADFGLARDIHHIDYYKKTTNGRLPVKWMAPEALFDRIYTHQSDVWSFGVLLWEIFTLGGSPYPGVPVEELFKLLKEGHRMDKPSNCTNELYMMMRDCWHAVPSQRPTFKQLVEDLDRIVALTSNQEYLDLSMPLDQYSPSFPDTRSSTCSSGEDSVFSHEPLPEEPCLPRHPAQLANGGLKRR
UniProt P06239: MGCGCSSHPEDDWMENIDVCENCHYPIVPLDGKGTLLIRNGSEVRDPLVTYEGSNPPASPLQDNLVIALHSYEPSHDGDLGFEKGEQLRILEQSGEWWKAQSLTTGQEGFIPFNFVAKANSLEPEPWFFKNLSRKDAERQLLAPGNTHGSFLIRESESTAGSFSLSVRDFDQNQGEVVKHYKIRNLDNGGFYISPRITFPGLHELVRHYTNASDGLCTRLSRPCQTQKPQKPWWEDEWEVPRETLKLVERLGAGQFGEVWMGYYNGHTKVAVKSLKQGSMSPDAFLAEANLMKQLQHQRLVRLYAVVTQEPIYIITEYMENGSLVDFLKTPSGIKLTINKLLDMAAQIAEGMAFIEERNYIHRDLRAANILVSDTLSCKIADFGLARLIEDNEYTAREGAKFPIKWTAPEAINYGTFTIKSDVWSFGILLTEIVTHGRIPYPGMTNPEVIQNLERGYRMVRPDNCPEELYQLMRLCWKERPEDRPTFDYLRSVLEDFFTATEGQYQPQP
UniProt P07949, whole entry, looked up: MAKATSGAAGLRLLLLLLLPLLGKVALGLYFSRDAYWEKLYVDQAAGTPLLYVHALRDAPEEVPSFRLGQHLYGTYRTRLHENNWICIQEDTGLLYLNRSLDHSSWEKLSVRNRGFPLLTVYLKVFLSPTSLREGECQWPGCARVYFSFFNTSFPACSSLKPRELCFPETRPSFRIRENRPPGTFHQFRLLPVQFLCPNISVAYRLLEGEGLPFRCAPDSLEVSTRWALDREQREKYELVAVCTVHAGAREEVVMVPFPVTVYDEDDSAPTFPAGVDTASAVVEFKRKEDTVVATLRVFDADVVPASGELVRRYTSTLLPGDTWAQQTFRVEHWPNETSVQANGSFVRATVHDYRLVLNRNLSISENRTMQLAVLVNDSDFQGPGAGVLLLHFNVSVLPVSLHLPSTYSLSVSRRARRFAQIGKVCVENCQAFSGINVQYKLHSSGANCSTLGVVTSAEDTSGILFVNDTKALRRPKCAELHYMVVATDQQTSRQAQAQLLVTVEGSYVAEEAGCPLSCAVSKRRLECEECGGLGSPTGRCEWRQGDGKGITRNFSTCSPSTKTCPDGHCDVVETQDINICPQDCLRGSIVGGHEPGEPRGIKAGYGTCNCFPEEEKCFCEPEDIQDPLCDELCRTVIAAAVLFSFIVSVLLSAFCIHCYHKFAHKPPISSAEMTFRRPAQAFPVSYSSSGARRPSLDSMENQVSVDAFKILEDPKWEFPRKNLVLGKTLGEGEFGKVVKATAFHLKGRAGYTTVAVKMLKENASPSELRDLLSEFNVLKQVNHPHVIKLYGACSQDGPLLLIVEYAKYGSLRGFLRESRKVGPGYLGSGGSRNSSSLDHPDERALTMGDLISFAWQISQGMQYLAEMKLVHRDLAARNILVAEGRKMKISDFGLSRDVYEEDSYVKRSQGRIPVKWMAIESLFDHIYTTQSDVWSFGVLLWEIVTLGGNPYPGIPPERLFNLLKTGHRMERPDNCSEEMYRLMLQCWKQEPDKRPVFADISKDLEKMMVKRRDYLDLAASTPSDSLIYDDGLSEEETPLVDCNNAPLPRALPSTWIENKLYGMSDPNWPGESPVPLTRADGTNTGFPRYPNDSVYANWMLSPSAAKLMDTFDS

Assays:
Assay in all cases: number of time points (of 5) at which kinase-Nluc abundance scored as decreased, DMSO-normalised (count); higher = more persistent destabilization
[1] = compound: Clc1ccc(C2(c3ccc(-c4cn[nH]c4)cc3)CCNCC2)cc1; conditions: 10 µM; K562; 2-18 h
MK-8033 (hydrochloride) = compound: Cn1cc(-c2cnc3ccc4ccc(CS(=O)(=O)NCc5ccccn5)cc4c(=O)c3c2)cn1 [MK-8033 (hydrochloride)]; conditions: 10 µM; K562; 2-18 h
[2] = compound: Cn1cc(-c2cnc3ccc4ccc(CS(=O)(=O)NCc5ccccn5)cc4c(=O)c3c2)cn1; conditions: 10 µM; K562; 2-18 h
[3] = compound: Cn1ncc(Cl)c1-c1cc(C(=O)N[C@H](CN)Cc2cccc(F)c2)sc1Cl [Afuresertib (hydrochloride)]; conditions: 10 µM; K562; 2-18 h
Afuresertib = compound: Cn1ncc(Cl)c1-c1cc(C(=O)N[C@H](CN)Cc2cccc(F)c2)sc1Cl [Afuresertib]; conditions: 10 µM; K562; 2-18 h
[4] = compound: FC(F)(F)c1ccc(CNc2ccc(Cc3c[nH]c4ncc(Cl)cc34)cn2)cn1 [Pexidartinib (hydrochloride)]; conditions: 10 µM; K562; 2-18 h
Pexidartinib = compound: FC(F)(F)c1ccc(CNc2ccc(Cc3c[nH]c4ncc(Cl)cc34)cn2)cn1 [Pexidartinib]; conditions: 10 µM; K562; 2-18 h
Itacitinib adipate = compound: N#CCC1(n2cc(-c3ncnc4[nH]ccc34)cn2)CN(C2CCN(C(=O)c3ccnc(C(F)(F)F)c3F)CC2)C1 [Itacitinib adipate]; conditions: 10 µM; K562; 2-18 h
Itacitinib = compound: N#CCC1(n2cc(-c3ncnc4[nH]ccc34)cn2)CN(C2CCN(C(=O)c3ccnc(C(F)(F)F)c3F)CC2)C1 [Itacitinib]; conditions: 10 µM; K562; 2-18 h
Momelotinib sulfate = compound: N#CCNC(=O)c1ccc(-c2ccnc(Nc3ccc(N4CCOCC4)cc3)n2)cc1 [Momelotinib sulfate]; conditions: 10 µM; K562; 2-18 h
Momelotinib = compound: N#CCNC(=O)c1ccc(-c2ccnc(Nc3ccc(N4CCOCC4)cc3)n2)cc1 [Momelotinib]; conditions: 10 µM; K562; 2-18 h
Ruxolitinib (phosphate) = compound: N#CC[C@H](C1CCCC1)n1cc(-c2ncnc3[nH]ccc23)cn1 [Ruxolitinib (phosphate)]; conditions: 10 µM; K562; 2-18 h
Ruxolitinib = compound: N#CC[C@H](C1CCCC1)n1cc(-c2ncnc3[nH]ccc23)cn1 [Ruxolitinib]; conditions: 10 µM; K562; 2-18 h
[5] = compound: N=C(N)NC(=O)c1nc(Cl)c(N)nc1N [Amiloride (hydrochloride)]; conditions: 10 µM; K562; 2-18 h
[6] = compound: N=C(N)NC(=O)c1nc(Cl)c(N)nc1N [Amiloride hydrochloride dihydrate]; conditions: 10 µM; K562; 2-18 h
Lanraplenib (succinate) = compound: Nc1cncc(-c2cn3ccnc3c(Nc3ccc(N4CCN(C5COC5)CC4)cc3)n2)n1 [Lanraplenib (succinate)]; conditions: 10 µM; K562; 2-18 h
Lanraplenib = compound: Nc1cncc(-c2cn3ccnc3c(Nc3ccc(N4CCN(C5COC5)CC4)cc3)n2)n1 [Lanraplenib]; conditions: 10 µM; K562; 2-18 h
IBT6A (hydrochloride) = compound: Nc1ncnc2c1c(-c1ccc(Oc3ccccc3)cc1)nn2[C@@H]1CCCNC1 [IBT6A (hydrochloride)]; conditions: 2.5 µM; K562; 2-18 h
[7] = compound: Nc1ncnc2c1c(-c1ccc(Oc3ccccc3)cc1)nn2[C@@H]1CCCNC1; conditions: 2.5 µM; K562; 2-18 h
PKI-179 (hydrochloride) = compound: O=C(Nc1ccncc1)Nc1ccc(-c2nc(N3CCOCC3)nc(N3C4CCC3COC4)n2)cc1 [PKI-179 (hydrochloride)]; conditions: 2.5 µM; K562; 2-18 h

Measured: number of time points

TEC (UniProt P42680)
3: PKI-179 (hydrochloride)
2: Pexidartinib
0: all other assays above

TYK2 (UniProt P29597)
3: Momelotinib
4: [1] | PKI-179 (hydrochloride)
not listed: [4]
0: all other assays above

AURKB (UniProt Q96GD4)
4: PKI-179 (hydrochloride)
1: [1]
0: all other assays above

CSNK1D (UniProt P48730)
4: PKI-179 (hydrochloride)
0: all other assays above

IRAK3 (UniProt Q9Y616)
2: PKI-179 (hydrochloride)
0: all other assays above

EGFR_T790M (UniProt P00533)
3: Ruxolitinib
0: all other assays above

CDK3 (UniProt Q00526)
0: all assays above

AURKA (UniProt O14965)
2: [3]
4: PKI-179 (hydrochloride)
3: [1] | Momelotinib
0: all other assays above

CSK (UniProt P41240)
0: all assays above

SRC (UniProt P12931)
0: all assays above

FGFR1 (UniProt P11362)
3: PKI-179 (hydrochloride)
0: all other assays above

LCK (UniProt P06239)
0: all assays above

CDK2 (UniProt P24941)
0: all assays above

RET (UniProt P07949)
2: PKI-179 (hydrochloride)
not listed: Ruxolitinib (phosphate) | Ruxolitinib
0: all other assays above

RIOK1 (UniProt Q9BRS2)
2: [1]
0: all other assays above

STK24 (UniProt Q9Y6E0)
0: all assays above
